The target in one assay is IκB-α. Briefly: IκB-α kinase inhibition, in vitro kinase assay. The assay is classed as biochemical.
Assay [1] has as its system T-lymphoblastic leukemia cell line CEM. As to the kind of experiment: In vitro cytotoxicity, MTT assay, CEM. It counts as cell-based. The note with it: Homo sapiens, 72 h, read-out: CEM IC50. The source says:
(§1) One of the parameters used, as the basis for colorimetric assays, is the metabolic activity of viable cells. For example, a microtiter assay, which uses the tetrazolium salt MTT, is now widely used to quantitate cell proliferation and cytotoxicity. For instance, this assay is used in drug screening programs and in chemosensitivity testing. Because only metabolically active cells cleave tetrazolium salts, these assays detect viable cells exclusively. In the case of MTT assay, yellow soluble tetrazolium salt is reduced to coloured water-insoluble formazan salt. After it is solubilized, the formazan formed can easily and rapidly be quantified in a conventional ELISA plate reader at 570 nm (maximum absorbance). The quantity of reduced formazan corresponds to number of vital cells in the culture. […]
(§2) The cell suspensions that were prepared and diluted according to the particular cell type and the expected target cell density (2.500-30.000 cells per well based on cell growth characteristics) were added by pipette (80 μl) into 96/well microtiter plates. […] Usually, test compound was evaluated at six 4-fold dilutions. […] The optical density (OD) was measured at 540 nm with the Labsystem iEMS Reader MF (UK). The tumour cell survival (TCS) was calculated using the following equitation: TCS=(ODdrug exposed well/mean ODcontrol wells)×100%. […]
For orientation: Formazan colour is commonly taken as a measure of viable cells.

The next assay deals with B16 melanoma. As to the kind of experiment: In vitro cytotoxicity, MTT assay, B16. It counts as cell-based. The note with it: Mus musculus, B16, 72 h, read-out: B16 IC50.
Description: as §1, §2

Assay [2] relates to normal human lymphocytes, spontaneous proliferation. As to the kind of experiment: Spontaneous proliferation of lymphocytes, 3H-thymidine incorporation. It counts as cell-based. The settings on record: Lymphocyte, 72 h, read-out: spontaneous IC50. Here is the method:
(§3) Human heparinized peripheral blood was obtained from healthy volunteers by cubital vein punction.
(§4) The cells were diluted at target density of 1.100.000 cells/ml were added by pipet (180 μl) into 96/well microtiter plates. Four-fold dilutions of the intended test concentration were added at time zero in 20 μl aliquots to the microtiter plate wells. Usually, test compound was evaluated at six 4-fold dilutions. […] Incubations of cells with test compounds lasted for 72 hours at 37° C., in 5% CO2 atmosphere and 100% humidity. At the end of incubation period, the cells were assayed by using the [^3H]-TdR:
(§5) Cell cultures were incubated with […] (20 μl of stock solution 500 μCi/ml) per well for 6 hours at 37° C. and 5% CO2. The automated cell harvester was used to lyse cells in water and adsorb the DNA onto glass-fiber filters in the format of microtiter plate. The DNA incorporated [^3H]-TdR was retained on the filter while unincorporated material passes through. The filters were dried at room temperature overnight, sealed into a sample bag with 10-12 ml of scintillant. The amount of [^3]H-TdR present in each filter (in CCPM) was determined by scintillation counting in a Betaplate liquid scintillation counter. The effective dose of immunosuppressant (ED) was calculated using the following equotation: ED=(CCPMdrug exposed well/mean CCPMcontrol wells)×100%.

Assay [3] relates to normal human lymphocytes, mitogen activated proliferation. Briefly: Mitogen (concanavalin A) activated proliferation of lymphocytes, 3H-thymidine incorporation. The settings on record: Lymphocyte, 72 h, read-out: mitogen activated IC50. The assay is classed as cell-based. On the procedure:
as §3, §4, §5
A general note: Uptake of a labelled nucleoside into DNA is a usual measure of proliferation.

By IC50 is commonly meant the concentration at which inhibition is half-maximal. Take `CC[C@H](CO)Nc1nc(NCc2ccccc2)c2ncn(C(C)C)c2n1` [ROSCOVITINE, reference compound]: the IC50 was found to be 1.4 µM against IκB-α; 3.45 µM in assay [1]; 4.4 µM in the assay on B16 melanoma; 164 µM in assay [2]; 6.4 µM in assay [3].
